Laboratory results published in the supplement of paper PMC6078165.
± gives the standard deviation of the averaged measurements. Values are relative to the signal before dosing, not to a vehicle control; the signal also falls without drug.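 Labels refer to human fibroblasts, largely primary: uterine (C12385, HUF), lung (H6013), bone (Hs27A), adrenal (HADF), skin (WS1), plus mammary HMF and breast cancer-associated Hs343T. Cancer lines are basal-like or mesenchymal-like triple-negative breast cancer. The paper counts as hits responses shifting over 3x the replicate standard deviation. The tissue of the other fibroblasts is not given here.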

Tested on: MDAMB231
Experiment: relative JC-1 red fluorescence (viability) vs pre-drug, coculture with fibroblast (fraction); higher = more viable cancer cells
Conditions: 10 µM
Method: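 JC-1 labelled TNBC cells cocultured 1:1 (1,500 cells each) with CellTrace Violet stained primary or stromal fibroblasts in 384-well plates in FluoroBrite medium, treated with one of 42 anticancer drugs at 0.1, 1, 10 or 100 uM. JC-1 red fluorescence (mitochondrial integrity in cancer cells only) was read by plate reader every 8 h for 72 h. Values are normalised to each well's pre-drug value. The stock of one drug was tenfold lower, so its dose labels may be too high.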

O=NN(CCCl)C(=O)NC1CCCCC1 [Lomustine]
relative JC-1 red fluorescence
Conditions	8 h	16 h	24 h	32 h	40 h	48 h	56 h	64 h	72 h
coculture fibroblast: C12385	0.745 ± 0.02	0.6956 ± 0.0047	0.661 ± 0.036	0.602 ± 0.015	0.54 ± 0.032	0.523 ± 0.054	0.493 ± 0.063	0.503 ± 0.083	0.49 ± 0.09
coculture fibroblast: H6013	0.908 ± 0.019	0.893 ± 0.049	0.877 ± 0.075	0.873 ± 0.11	0.839 ± 0.12	0.826 ± 0.11	0.813 ± 0.12	0.794 ± 0.13	0.762 ± 0.12
coculture fibroblast: H6019	0.7944 ± 0.0068	0.711 ± 0.019	0.686 ± 0.032	0.623 ± 0.047	0.575 ± 0.043	0.556 ± 0.035	0.515 ± 0.035	0.493 ± 0.023	0.461 ± 0.03
coculture fibroblast: H6076	0.852 ± 0.025	0.782 ± 0.03	0.742 ± 0.035	0.719 ± 0.025	0.685 ± 0.02	0.654 ± 0.018	0.6366 ± 0.0016	0.6315 ± 0.0062	0.6363 ± 0.0014
coculture fibroblast: H6231	0.883 ± 0.0024	0.793 ± 0.048	0.739 ± 0.032	0.698 ± 0.042	0.658 ± 0.056	0.633 ± 0.049	0.595 ± 0.057	0.583 ± 0.061	0.57 ± 0.069
coculture fibroblast: HADF	0.8702 ± 0.0079	0.826 ± 0.015	0.785 ± 0.0091	0.7483 ± 0.0045	0.701 ± 0.0079	0.6507 ± 0.0016	0.628 ± 0.015	0.605 ± 0.0095	0.56 ± 0.012
coculture fibroblast: HCFa	0.9051 ± 0.0039	0.86214 ± 0.00045	0.823 ± 0.014	0.7758 ± 0.0059	0.7184 ± 0.0015	0.6664 ± 0.0017	0.623 ± 0.0064	0.582 ± 0.011	0.527 ± 0.015
coculture fibroblast: HCPF	0.836 ± 0.093	0.774 ± 0.096	0.747 ± 0.11	0.731 ± 0.11	0.701 ± 0.12	0.669 ± 0.12	0.642 ± 0.12	0.62 ± 0.12	0.608 ± 0.13
coculture fibroblast: HHSteC	0.9173 ± 0.0032	0.9063 ± 0.0082	0.8741 ± 0.0084	0.831 ± 0.017	0.807 ± 0.027	0.784 ± 0.029	0.741 ± 0.016	0.724 ± 0.018	0.68 ± 0.01
coculture fibroblast: HMF	0.846 ± 0.023	0.783 ± 0.056	0.736 ± 0.069	0.703 ± 0.078	0.664 ± 0.085	0.623 ± 0.073	0.589 ± 0.073	0.573 ± 0.068	0.563 ± 0.059
coculture fibroblast: HPFa	0.827 ± 0.1	0.804 ± 0.081	0.776 ± 0.043	0.861 ± 0.16	0.838 ± 0.14	0.773 ± 0.096	0.714 ± 0.092	0.665 ± 0.068	0.597 ± 0.045
coculture fibroblast: HUF	0.842 ± 0.031	0.748 ± 0.035	0.777 ± 0.035	0.655 ± 0.02	0.597 ± 0.031	0.579 ± 0.012	0.5416 ± 0.0031	0.558 ± 0.015	0.558 ± 0.024
coculture fibroblast: Hs5	0.867 ± 0.028	0.794 ± 0.032	0.755 ± 0.036	0.708 ± 0.033	0.673 ± 0.044	0.627 ± 0.04	0.588 ± 0.046	0.563 ± 0.058	0.547 ± 0.056
coculture fibroblast: Hs27A	0.886 ± 0.018	0.849 ± 0.0015	0.8193 ± 0.0077	0.795 ± 0.016	0.742 ± 0.014	0.683 ± 0.019	0.676 ± 0.0075	0.6535 ± 0.0018	0.6028 ± 0.0045
coculture fibroblast: Hs343T	0.848 ± 0.037	0.7493 ± 0.0016	0.697 ± 0.0086	0.658 ± 0.0086	0.604 ± 0.021	0.565 ± 0.03	0.517 ± 0.048	0.497 ± 0.05	0.478 ± 0.064
coculture fibroblast: WS1	0.757 ± 0.027	0.713 ± 0.047	0.656 ± 0.064	0.605 ± 0.058	0.555 ± 0.061	0.527 ± 0.049	0.479 ± 0.048	0.474 ± 0.038	0.457 ± 0.044
